Measurements reported in PubChem BioAssay AID1259254 (NCATS, 2017)

Purpose: 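Gene knock-downs that lead to re-replication, shown by excess G2 DNA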 (primary screen)
Cell system: human HCT116 colorectal cancer cells
Reagents: single siRNA against human genes
Time to read-out: 3 days
Measured: 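Imaged Hoechst DNA stain sorts each cell into a cycle phase by DNA amount; per plate, G2 fraction set to 0% for non-targeting and 100% for GMNN siRNA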
Scale: G2 robust z-score and G2 cells, % of GMNN control: higher = more G2 cells, more excess DNA replication; raw share of cells in G2: higher = larger share of cells with G2 DNA content
Rule for the call: 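An siRNA counts as active if its G2 robust z-score lies at least 5 MADs above the screen median; here such calls match roughly 38% of GMNN control or more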
In all, the deposit lists about 59,000 reagents; this is a part drawn at random. Over the whole deposit, about 1,550 (2.6%) are marked active. 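G2 share is only a proxy for re-replication; each gene was hit by three separate siRNAs, and active genes were retested.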 Raw values vary from plate to plate and are shown uncorrected. The numbers tell different reagents against one gene apart. The record does not give: the amount of reagent.

no.	gene symbol	reagent no.	G2 robust z-score	G2 cells, % of GMNN control	raw share of cells in G2 (%)	outcome
1	LINC01168 (long independently transcribed non-coding RNA 1168)	1	1.28	12	8.18	inactive
2	LINC01168 (long independently transcribed non-coding RNA 1168)	2	0.366	5.54	5.72	inactive
3	LINC01168 (long independently transcribed non-coding RNA 1168)	3	-0.462	-0.285	4.67	inactive
4	TAGLN2 (transgelin 2)	1	-0.813	-2.75	3.29	inactive
5	TAGLN2 (transgelin 2)	2	0.68	7.75	7.48	inactive
6	TAGLN2 (transgelin 2)	3	-1.1	-4.77	3.59	inactive
7	BOLA2 (bolA family member 2)	1	0.89	9.23	7.19	inactive
8	BOLA2 (bolA family member 2)	2	1.32	12.2	8.05	inactive
9	BOLA2 (bolA family member 2)	3	-0.295	0.891	3.42	inactive
10	PRSS33 (serine protease 33)	1	5.05	38.5	18.6	active
11	PRSS33 (serine protease 33)	2	1.14	11	10.2	inactive
12	PRSS33 (serine protease 33)	3	0.647	7.52	6.95	inactive
13	PAX7 (paired box 7)	1	-0.105	2.23	6.05	inactive
14	PAX7 (paired box 7)	2	0.897	9.28	8.52	inactive
15	PAX7 (paired box 7)	3	-0.31	0.787	3.47	inactive
16	TRIR (telomerase RNA component interacting RNase)	1	-0.872	-3.17	1.86	inactive
17	TRIR (telomerase RNA component interacting RNase)	2	-1.21	-5.56	2.16	inactive
18	TRIR (telomerase RNA component interacting RNase)	3	-0.254	1.18	5.14	inactive
19	USP3 (ubiquitin specific peptidase 3)	1	4.99	38.1	18.8	inactive
20	USP3 (ubiquitin specific peptidase 3)	2	-0.801	-2.67	3.96	inactive
21	USP3 (ubiquitin specific peptidase 3)	3	-1.18	-5.32	1.93	inactive

Next part; the last 2 above are carried over.
no.	gene symbol	reagent no.	G2 robust z-score	G2 cells, % of GMNN control	raw share of cells in G2 (%)	outcome
20	USP3 (ubiquitin specific peptidase 3)	2	-0.801	-2.67	3.96	inactive
21	USP3 (ubiquitin specific peptidase 3)	3	-1.18	-5.32	1.93	inactive
22	NCF2 (neutrophil cytosolic factor 2)	1	-0.997	-4.05	3.8	inactive
23	NCF2 (neutrophil cytosolic factor 2)	2	2.27	18.9	9.44	inactive
24	NCF2 (neutrophil cytosolic factor 2)	3	1.76	15.4	11.6	inactive
25	NME2 (NME/NM23 nucleoside diphosphate kinase 2)	1	-0.703	-1.98	4.74	inactive
26	NME2 (NME/NM23 nucleoside diphosphate kinase 2)	2	-0.697	-1.94	4.97	inactive
27	NME2 (NME/NM23 nucleoside diphosphate kinase 2)	3	-0.485	-0.443	3.87	inactive
28	CDK16 (cyclin dependent kinase 16)	1	1.58	14.1	10.3	inactive
29	CDK16 (cyclin dependent kinase 16)	2	-0.358	0.449	5.56	inactive
30	CDK16 (cyclin dependent kinase 16)	3	-0.747	-2.29	3.22	inactive
31	KRT24 (keratin 24)	1	1.21	11.4	7.7	inactive
32	KRT24 (keratin 24)	2	0.908	9.36	6.1	inactive
33	KRT24 (keratin 24)	3	-0.817	-2.78	1.88	inactive
34	CCDC192 (coiled-coil domain containing 192)	1	-0.291	0.92	4.28	inactive
35	CCDC192 (coiled-coil domain containing 192)	2	4.97	37.9	15.5	inactive
36	CCDC192 (coiled-coil domain containing 192)	3	0.759	8.31	6.34	inactive
37	GCM2 (GCM transcription factor 2)	1	1.32	12.3	10.1	inactive
38	GCM2 (GCM transcription factor 2)	2	1.35	12.5	9.64	inactive
39	GCM2 (GCM transcription factor 2)	3	-0.919	-3.5	3.46	inactive
40	ARFGEF1 (ARF guanine nucleotide exchange factor 1)	1	-1.2	-5.45	2.87	inactive
41	ARFGEF1 (ARF guanine nucleotide exchange factor 1)	2	-0.778	-2.5	2.9	inactive
42	ARFGEF1 (ARF guanine nucleotide exchange factor 1)	3	1.32	12.2	7.86	inactive
43	ULK4P3 (ULK4 pseudogene 3)	1	1.62	14.3	9.7	inactive
44	ULK4P3 (ULK4 pseudogene 3)	2	2.93	23.6	11.4	inactive
45	ULK4P3 (ULK4 pseudogene 3)	3	0.633	7.42	6.02	inactive
46	TEX46 (testis expressed 46)	1	0.204	4.4	4.82	inactive
47	TEX46 (testis expressed 46)	2	-0.512	-0.635	3.69	inactive
48	TEX46 (testis expressed 46)	3	1.89	16.3	8.56	inactive
